Reference: publication PMC4926252 (Scientific Reports, 2016)
Results are given in words; binding and its absence hold for the method and conditions named.

Assays:
[1] = biological target: T1, ligand binding domain of the chemoreceptor CtpL (CtpL-LBD) (P. aeruginosa) (UniProt Q9HUW6); test: AUC; sedimentation velocity, 45,000 rpm, 6 °C, polybuffer; CtpL-LBD and PstS individually and as a mixture; c(s) method; both purified
T1 sequence: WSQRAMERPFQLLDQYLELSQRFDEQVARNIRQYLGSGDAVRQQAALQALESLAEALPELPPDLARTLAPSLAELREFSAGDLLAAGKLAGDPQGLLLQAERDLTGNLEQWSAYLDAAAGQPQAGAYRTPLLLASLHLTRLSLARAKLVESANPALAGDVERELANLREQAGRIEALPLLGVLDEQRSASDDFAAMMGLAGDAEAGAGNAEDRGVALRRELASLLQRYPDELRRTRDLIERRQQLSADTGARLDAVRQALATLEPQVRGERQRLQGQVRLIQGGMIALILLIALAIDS

[2] = biological target: PstS (PA5369), periplasmic phosphate-binding protein, recombinant (P. aeruginosa) (UniProt G3XDA8); test: as above

B1: ligand binding domain of the chemoreceptor CtpL (CtpL-LBD) (domain or fragment, P. aeruginosa, UniProt Q9HUW6 27-324, looked up)
chain: WSQRAMERPFQLLDQYLELSQRFDEQVARNIRQYLGSGDAVRQQAALQALESLAEALPELPPDLARTLAPSLAELREFSAGDLLAAGKLAGDPQGLLLQAERDLTGNLEQWSAYLDAAAGQPQAGAYRTPLLLASLHLTRLSLARAKLVESANPALAGDVERELANLREQAGRIEALPLLGVLDEQRSASDDFAAMMGLAGDAEAGAGNAEDRGVALRRELASLLQRYPDELRRTRDLIERRQQLSADTGARLDAVRQALATLEPQVRGERQRLQGQVRLIQGGMIALILLIALAIDS
notes: Cloned into pET28b(+); Held on a HisTrap column as bait in the pull-down; The discussion gives 286 amino acids for CtpL-LBD, whereas 27-324 is 298 residues; also called PA4844; source: E. coli BL21 (DE3), purified (HisTrap) from the soluble fraction
[1]
  binding: no binding

B2: PstS (PA5369), periplasmic phosphate-binding protein, recombinant (protein, UniProt G3XDA8 25-323)
chain: AIDPALPEYQKASGVSGNLSSVGSDTLANLMTMWAEEYKRLYPNVNIQIQAAGSSTAPPALTEGTANLGPMSRKMKDVELQAFEQKYGYKPTAVPVAVDALAIFVHKDNPIKGLTMQQVDAIFSATRLCGSKQDVKTWGDLGLTGDWAKKPVQLFGRNSVSGTYGYFKEEALCKGDFRPNVNEQPGSASVVQSVSQSLNGIGYSGIGYKTASVKTVALAKKEGAAFVEDNEQNALNGTYPLSRFLYVYVNKAPNKPLDPLEAQFLKLVLSKTGQQVVVKDGYIPLPAKVAEKAIKELGL
[2]
  binding: no binding
